Results from publication PMC10140173.
Results are given in words; binding and its absence hold for the method and conditions named. Binding seen in cells or lysates may run through a third protein. Some entries that bind do so weakly or less than the wild type.

Molecular target: T1, White Collar 2 (WC-2) (Neurospora crassa (endogenous in Neurospora)) (UniProt P78714)
T1 sequence: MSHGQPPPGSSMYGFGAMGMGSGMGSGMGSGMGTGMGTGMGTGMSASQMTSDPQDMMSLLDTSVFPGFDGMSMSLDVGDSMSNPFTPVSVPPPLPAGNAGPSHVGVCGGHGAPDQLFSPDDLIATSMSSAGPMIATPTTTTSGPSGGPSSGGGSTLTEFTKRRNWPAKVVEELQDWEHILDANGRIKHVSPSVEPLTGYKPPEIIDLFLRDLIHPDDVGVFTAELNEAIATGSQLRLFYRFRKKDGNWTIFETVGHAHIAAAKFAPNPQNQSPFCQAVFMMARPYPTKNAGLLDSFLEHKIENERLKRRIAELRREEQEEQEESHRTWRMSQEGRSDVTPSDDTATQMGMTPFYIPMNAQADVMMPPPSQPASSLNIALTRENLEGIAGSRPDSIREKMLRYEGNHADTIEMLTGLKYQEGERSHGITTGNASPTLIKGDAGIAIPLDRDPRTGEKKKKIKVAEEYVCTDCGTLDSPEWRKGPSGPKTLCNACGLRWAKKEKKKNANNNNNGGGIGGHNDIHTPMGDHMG
Test: co-IP; immunoprecipitation with WC-2 antiserum from extracts of the l-frq and s-frq strains grown at 20 °C and 30 °C; preimmune serum as control

B1: small FRQ (s-FRQ), FREQUENCY protein isoform lacking the N-terminal 99 aa (protein, UniProt P19970 100-989)
chain: MEVDPPFYQKETDSSNEESRYPPGRNPVHPPGGVQLPGFRPVAAHSSAADDYRSVIDDLTVENKRLKEELKRYKQFGSDVMRKEKLFEIKVHGLPRRKKRELEATLRDFAASLGDSSESTSQRRKTGRHGTAVHSSGVSLSKHDSSSSSRSRPVDSAYNSMSTGRSSHAPHSSGPSLGRPSLTRAKSVGTQKVENYLRDTPDGLLPHHIVMTDKEKKKLVVRRLEQLFTGKISGRNMQRNQSMPSMDAPLAPEGTNMAPPRPPPEGLREACIQLQDGDNPRKNRSSKDNGSASNSGGDQTELGGTGTGSGDGSGSGGRTGNNTSPPGAIAPDQRPTRPRDLDPDRVQIPSENMDYIRHLGLVSPEFLQGSRTSYQDVAPDAEGWVYLNLLCNLAQLHMVNVTPSFIRQAVSEKSTKFQLSADGRKIRWRGGTDGTKFSSDSSEDKSQQSPMTEDTEDGSDKNGRRKKRKTQQASSEIGRFGPSRSPSDTFHYKPMFVHRNSSSIETSLEESMSQGSEDAVDESNMGNSKWDFSGSGTTQQRRKRRYDGAIVYYTGAPFCTDLSGDPGDMSPTAQMTAGREVEGSGSGDEVEHVLQRTLSGSSLPIRPLSDDRARVAEVLDFDPGNPPELVADDGSSPNDEDFVFPWCEDPAKVRIQPIAKEVMEPSGLGGVLPDDHFVMLVTTRRVVRPILQRQLSRSTTSEDTAEFIAERLAAIRTSSPLPPRSHRLTVAPLQVEYVSGQFRRLNPAPLPPPAIFYPPFSTDSSWDDGDDLASDDEEVEEVEEDSYSEGQISRRANPHFSDNNTYMRKDDLAFDTETDVRMDSDDNRLSDSGHNMRAMMPRAEAVDGDDSPLAAVTGKEVDMLHTGSSVATAGGAESGYSSSMEDVSSS
With B1 the binding was “binds”.
